Values of other authors as cited in US20100241197A1, “METHODS OF USING NITROXIDES IN CONJUNCTION WITH PHOTOSENSITIZERS AND SONOSENSITIZERS” (Mitos Pharmaceuticals, Inc., priority 2003, published 2010).
At least one compound was matched to its structure with a doubt left.

Key:
[1] = relative to PHOTOFRIN; lower photosensitizer dose and shorter illumination times for similar results
[2] = at 652 nm, in methanol

For Oc1cccc(-c2c3nc(c(-c4cccc(O)c4)c4ccc([nH]4)c(-c4cccc(O)c4)c4nc(c(-c5cccc(O)c5)c5ccc2[nH]5)CC4)C=C3)c1 [m-THPC, Meta-tetra hydroxyphenyl chlorin], the “times more effective than PHOTOFRIN when considering photodynamic dose” value [1] is listed as “approximately 200 times” and the molar absorbance coefficient [2] is listed as 22 400 M-1 cm-1.
